Reference: PubChem BioAssay AID1347426 (Functional Genomics Laboratory (NCATS/FGL), 2020)
In all, about 31,000 sequences went through this assay and about 1,400 (4.5%) were called active.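 Rule for the calls: active = median seed-adjusted z-score above 1 or below -1; inactive = the rest.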 This is one part of the list.

assay: Novel Modifiers of Survival Motor Neuron (SMN) Protein: Gene Identification via Genome-wide siRNA Screen; conditions: HEK293T SMN2-luciferase reporter, siRNA knockdown, 72 h; actives lie on both sides;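 note: luminescence tracks full-length SMN protein made from the SMN2 reporter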
In short: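 Steps: spot 1 pmol siRNA, add Lipofectamine RNAiMax in serum-free DMEM, seed HEK293T SMN2–luciferase reporter cells; incubate 72 h at 37 °C; add ONE-Glo; normalize luminescence to control siRNA, log10, MAD. Candidates: |MAD| > 1.0.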

Sequence	median seed-adjusted z-score
GAGUGGAAGUGUACCAACATT against HCFC1	active: 1.47
GGCCCAAUAUUUAUACCUATT against FAR2	inactive: 0.0328
GGACAUUACAAAACGAUUUTT against ZFYVE9	inactive: 0.373
GGUGGAGUCUUGCACUAAATT against UQCRQ	inactive: 0.0241
CCAGCGCCAUUUCAAGGGATT against ATP5G2	inactive: 0
CAGCUUGACUAAAAUCGUATT against LRRIQ1	inactive: 0
CCAUGAAUUCUUACUUUUATT against VAC14	inactive: 0.0825
GCAGCACCGUCUUCUCCUATT against GRIN3B	inactive: 0.39
CAACGCAGCUAUAAGCAAATT against SRGAP3	inactive: -0.0961
CAUCGGAGCUCGACAAGAATT against DOCK6	inactive: 0.0378
GUGUCGAUGUGGUCUAUGATT against ZADH2	inactive: -0.47
GUGACGCAGUUUUAAGGAATT against SLC22A9	inactive: -0.778
CUCAUUUCCUGGUAUGACATT against GAPDH	inactive: 0.479
GAAUGGUCAUCUCCGGUUATT against RAPGEF6	inactive: -0.186
CUAGAGCUUUUAUGUCCAATT against TRIM61	inactive: 0.0116
GCCUAGUGCUGACCUAUAUTT against GBP3	inactive: -0.864
GGUUCUGACAGACAAUGGATT against DPT	inactive: 0.073
CCAUUUGAUUUGUCGUAUATT against FRK	inactive: -0.14
GUCAAUUCCUGGAAUUUGATT against HLA-B	inactive: -0.355
GUAGAUUGGUUAGAGAGUATT against NUP107	inactive: -0.692
GUCUGUCGCUACUACAAUATT against SLCO2B1	inactive: 0.289
CCUGAUCCCGGAGACCUUUTT against STK19	inactive: -0.188
CCAUCCACGAAAAUGCUUUTT against FRAG1	inactive: -0.554

Sequence	median seed-adjusted z-score
GACCUUAACUAGUCGUGGATT against EIF4G3	inactive: -0.0562
CCCGAUGUGCGGAAAGUAATT against OPCML	inactive: -0.282
GGCAAACUGUGGUCAUAUATT against RPS6KC1	inactive: 0.344
GAGUAUCUAGUAAUCCUUUTT against HRB	inactive: 0.921
GGAGGUUUGUGACUGCACUTT against PAQR5	inactive: -0.0985
GCAGAACCUUUACUCAAUUTT against ZNF678	inactive: 0.172
CCAUCUCCAGCGAUGAUGATT against CYB5R3	inactive: -0.901
GGAUGGUGCCGAAACCAGUTT against ERCC2	inactive: -0.0551
CAUUCUCAGUCAUCAUAGATT against ATP8A2	inactive: 0
UGGUCUCAAUGACAGUAGATT against SNRPB	active: -3.17
GGAUCCUACCUGAACAGCATT against GPR158	inactive: 0.198
GGAGGACUAUGAUUUCGGATT against MAK	inactive: 0.22
GGAUAGUUAUCUAAGAUCATT against DOCK11	inactive: 0.293
CCAUCACGGGAUAUGUUGATT against BTNL8	inactive: 0.0508
GCUUCGGUGACAACCUGUATT against HIC1	inactive: 0.523
CGAGAUUUACUGCAAAGGATT against CSRP1	inactive: -0.312
CGACUGUUCCGACGACAAUTT against HAVCR1	inactive: -0.306
CCAUCGGACUGACAGUGAATT against COPZ1	active: -1.02
AUCUAGACUUCUCUUUAUATT against FHL3	inactive: 0.105
GACUUUACGUGUUAAUUCUTT against HNRNPA0	inactive: 0.149
CAAUGCAUGUGCGAAGCAATT against KIF5C	inactive: 0.283
AAACUGCUCUCAGUAUAGATT against SPINK2	inactive: -0.431
GAUCAAGUCUGACAUGGAATT against DNAJC5B	inactive: 0

Sequence	median seed-adjusted z-score
GAGCAUCUUUGAUCGAGAATT against SPINK5	inactive: 0.26
GGCUAGGAAAGAGAUUUAATT against PPP3R1	inactive: 0.18
CACUAAACCCUAUACAUCATT against CD34	inactive: -0.0898
CACGAUCAGUUACAUCUAUTT against FER	inactive: 0
GCAUGGGACGUGAUUUUCATT against CYP11A1	inactive: 0.0202
GCACUUCUCCUGAGCUAUUTT against TIGD3	inactive: 0.486
GCAUGCAUGCGUAAGGAGATT against TRIM72	inactive: -0.0122
GAAGGAUAGAAGAACUCAATT against MTA3	inactive: 0.342
GCGACAAAGGAAAACCUAATT against ZNF264	inactive: 0.617
CGUGUUUUCUUGCCGAACATT against RAF1	inactive: 0
CCUACGAACAUGACCCUAUTT against STAT1	inactive: -0.0526
GAUCCUGAAUGUGAACGGATT against SLC6A16	inactive: -0.461
GUGAUACUGUCAAAGGUCATT against ATF2	inactive: 0.424
GAUGCCUCUGGAUAUUUUATT against RAB12	inactive: -0.185
GCAUAUGGAGAUACCAUUATT against ALCAM	inactive: -0.743
CGGCCAAACUGCGUCUCAATT against RRAS	inactive: -0.102
GGGUCUUCAUGAUUGGUGUTT against SLC44A5	inactive: 0.179
AGAUCUACAGCUUCAUGAATT against FOXN4	inactive: 0.15
ACAAUUUCGAGAUCCAGAATT against OAS2	inactive: 0.0758
GCCCAACACCUUCUAUGUATT against CD81	inactive: 0
GCUUUCAAAUCGUCCGCGATT against TPSD1	inactive: 0.0848
GUACGGAUACCUCAAUGAATT against MMP28	inactive: 0.862
GGUCCUACGUUCACCAACATT against HNF1A	inactive: -0.436

Some of the entries above, reformatted.
Sequence | median seed-adjusted z-score
GUGACGCAGUUUUAAGGAATT against SLC22A9 | inactive: -0.778
CUCAUUUCCUGGUAUGACATT against GAPDH | inactive: 0.479
GAAUGGUCAUCUCCGGUUATT against RAPGEF6 | inactive: -0.186
CUAGAGCUUUUAUGUCCAATT against TRIM61 | inactive: 0.0116
GCCUAGUGCUGACCUAUAUTT against GBP3 | inactive: -0.864
GGUUCUGACAGACAAUGGATT against DPT | inactive: 0.073
CCAUUUGAUUUGUCGUAUATT against FRK | inactive: -0.14
GUCAAUUCCUGGAAUUUGATT against HLA-B | inactive: -0.355
GUAGAUUGGUUAGAGAGUATT against NUP107 | inactive: -0.692
GUCUGUCGCUACUACAAUATT against SLCO2B1 | inactive: 0.289
CCUGAUCCCGGAGACCUUUTT against STK19 | inactive: -0.188
CCAUCCACGAAAAUGCUUUTT against FRAG1 | inactive: -0.554
GACCUUAACUAGUCGUGGATT against EIF4G3 | inactive: -0.0562
CCCGAUGUGCGGAAAGUAATT against OPCML | inactive: -0.282
GGCAAACUGUGGUCAUAUATT against RPS6KC1 | inactive: 0.344
GAGUAUCUAGUAAUCCUUUTT against HRB | inactive: 0.921
GGAGGUUUGUGACUGCACUTT against PAQR5 | inactive: -0.0985
GCAGAACCUUUACUCAAUUTT against ZNF678 | inactive: 0.172
CCAUCUCCAGCGAUGAUGATT against CYB5R3 | inactive: -0.901
